Laboratory results: PubChem BioAssay AID1508597 (Cure First, 2020)
Here is a random part of about 2,100 reagents tested. 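Calls flag viability under 80% in either arm, not effects specific to rucaparib; the reference for percent is not stated.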 Entries without a mark were called inactive. No sequences are given here. The record does not give: the 100% reference.

- Purpose: 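Genes whose silencing sensitises or protects ovarian cancer cells against rucaparib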 (primary screen)
- Cells: human ovarian carcinoma lines grown from tumours: OCI-P5x (papillary serous) and OCI-C5x (clear cell)
- Reagents: siRNA pool against human genes, 1.25 pmol siRNA per well
- Time to read-out: 72 h or 96 h, depending on the cell culture
- Conditions: rucaparib 20 µM (about IC30) or vehicle, present until read-out
- Read-out: 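ATP luminescence measured at 72 or 96 h according to the culture, then normalised and expressed as percent viability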
- Reading the numbers: viability, normalised: higher = more viable cells remaining
- Active means: 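a well counts as a hit if its normalised viability is under 80 percent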
- Calls: active = viability under 80%; inactive = viability 80% or more

| gene | rucaparib or vehicle | cell line | technical replicate | viability, normalised (%) |
| --- | --- | --- | --- | --- |
| CKM | Rucaparib | OCI-C5x (clear cell) | 1 | 59.9 (active) |
| CKM | Rucaparib | OCI-C5x (clear cell) | 2 | 69.2 (active) |
| CKM | Rucaparib | OCI-C5x (clear cell) | 3 | 61.8 (active) |
| CKM | Rucaparib | OCI-P5x (serous) | 1 | 114 |
| CKM | Rucaparib | OCI-P5x (serous) | 2 | 111 |
| CKM | Rucaparib | OCI-P5x (serous) | 3 | 99.7 |
| CKM | Vehicle | OCI-C5x (clear cell) | 1 | 129 |
| CKM | Vehicle | OCI-C5x (clear cell) | 2 | 71.9 (active) |
| CKM | Vehicle | OCI-C5x (clear cell) | 3 | 70.8 (active) |
| CKM | Vehicle | OCI-P5x (serous) | 1 | 78.2 (active) |
| CKM | Vehicle | OCI-P5x (serous) | 2 | 95.3 |
| CKM | Vehicle | OCI-P5x (serous) | 3 | 86 |
| NANOG | Rucaparib | OCI-C5x (clear cell) | 1 | 50.8 (active) |
| NANOG | Rucaparib | OCI-C5x (clear cell) | 2 | 37.4 (active) |
| NANOG | Rucaparib | OCI-C5x (clear cell) | 3 | 55.1 (active) |
| NANOG | Rucaparib | OCI-P5x (serous) | 1 | 57.8 (active) |
| NANOG | Rucaparib | OCI-P5x (serous) | 2 | 53.7 (active) |
| NANOG | Rucaparib | OCI-P5x (serous) | 3 | 69.9 (active) |
| NANOG | Vehicle | OCI-C5x (clear cell) | 1 | 49.6 (active) |
| NANOG | Vehicle | OCI-C5x (clear cell) | 2 | 38.4 (active) |
| NANOG | Vehicle | OCI-C5x (clear cell) | 3 | 44.4 (active) |
| NANOG | Vehicle | OCI-P5x (serous) | 1 | 63.7 (active) |
| NANOG | Vehicle | OCI-P5x (serous) | 2 | 69.1 (active) |
| NANOG | Vehicle | OCI-P5x (serous) | 3 | 86.7 |
| NTHL1 | Rucaparib | OCI-C5x (clear cell) | 1 | 31.2 (active) |
| NTHL1 | Rucaparib | OCI-C5x (clear cell) | 2 | 33.7 (active) |
| NTHL1 | Rucaparib | OCI-C5x (clear cell) | 3 | 30.2 (active) |
| NTHL1 | Rucaparib | OCI-P5x (serous) | 1 | 102 |
| NTHL1 | Rucaparib | OCI-P5x (serous) | 2 | 87.4 |
| NTHL1 | Rucaparib | OCI-P5x (serous) | 3 | 61.1 (active) |
| NTHL1 | Vehicle | OCI-C5x (clear cell) | 1 | 89.3 |
| NTHL1 | Vehicle | OCI-C5x (clear cell) | 2 | 34 (active) |
| NTHL1 | Vehicle | OCI-C5x (clear cell) | 3 | 29.5 (active) |
| NTHL1 | Vehicle | OCI-P5x (serous) | 1 | 59.4 (active) |
| NTHL1 | Vehicle | OCI-P5x (serous) | 2 | 71.8 (active) |
| NTHL1 | Vehicle | OCI-P5x (serous) | 3 | 68.4 (active) |
| USP22 | Rucaparib | OCI-C5x (clear cell) | 1 | 81.6 |
| USP22 | Rucaparib | OCI-C5x (clear cell) | 2 | 53.6 (active) |
| USP22 | Rucaparib | OCI-C5x (clear cell) | 3 | 50.5 (active) |
| USP22 | Rucaparib | OCI-P5x (serous) | 1 | 63.4 (active) |
| USP22 | Rucaparib | OCI-P5x (serous) | 2 | 57 (active) |
| USP22 | Rucaparib | OCI-P5x (serous) | 3 | 57.8 (active) |
| USP22 | Vehicle | OCI-C5x (clear cell) | 1 | 49.6 (active) |
| USP22 | Vehicle | OCI-C5x (clear cell) | 2 | 58.9 (active) |
| USP22 | Vehicle | OCI-C5x (clear cell) | 3 | 61.8 (active) |
| USP22 | Vehicle | OCI-P5x (serous) | 1 | 66.4 (active) |
| USP22 | Vehicle | OCI-P5x (serous) | 2 | 71.6 (active) |
| USP22 | Vehicle | OCI-P5x (serous) | 3 | 65.9 (active) |

8 consecutive reagents already listed:
| gene | rucaparib or vehicle | cell line | technical replicate | viability, normalised (%) |
| --- | --- | --- | --- | --- |
| NANOG | Rucaparib | OCI-C5x (clear cell) | 1 | 50.8 (active) |
| NANOG | Rucaparib | OCI-C5x (clear cell) | 2 | 37.4 (active) |
| NANOG | Rucaparib | OCI-C5x (clear cell) | 3 | 55.1 (active) |
| NANOG | Rucaparib | OCI-P5x (serous) | 1 | 57.8 (active) |
| NANOG | Rucaparib | OCI-P5x (serous) | 2 | 53.7 (active) |
| NANOG | Rucaparib | OCI-P5x (serous) | 3 | 69.9 (active) |
| NANOG | Vehicle | OCI-C5x (clear cell) | 1 | 49.6 (active) |
| NANOG | Vehicle | OCI-C5x (clear cell) | 2 | 38.4 (active) |
